Measured values published in patent publication US20050244829A1, “Method of screening insulin resistance inproving drug” (priority 2002, published 2005).
No constants are given. Whether binding was seen depends on the method and setting. Binding seen in cells or lysates may run through a third protein. Some results given as binding are weak or reduced against the parent protein; the word gives no strength.

By UniProt entry, the sequences of proteins in these tests, tags left out. Where a name states a change or a piece, a line headed by the entry shows the natural chain unless it says otherwise.
UniProt P37231: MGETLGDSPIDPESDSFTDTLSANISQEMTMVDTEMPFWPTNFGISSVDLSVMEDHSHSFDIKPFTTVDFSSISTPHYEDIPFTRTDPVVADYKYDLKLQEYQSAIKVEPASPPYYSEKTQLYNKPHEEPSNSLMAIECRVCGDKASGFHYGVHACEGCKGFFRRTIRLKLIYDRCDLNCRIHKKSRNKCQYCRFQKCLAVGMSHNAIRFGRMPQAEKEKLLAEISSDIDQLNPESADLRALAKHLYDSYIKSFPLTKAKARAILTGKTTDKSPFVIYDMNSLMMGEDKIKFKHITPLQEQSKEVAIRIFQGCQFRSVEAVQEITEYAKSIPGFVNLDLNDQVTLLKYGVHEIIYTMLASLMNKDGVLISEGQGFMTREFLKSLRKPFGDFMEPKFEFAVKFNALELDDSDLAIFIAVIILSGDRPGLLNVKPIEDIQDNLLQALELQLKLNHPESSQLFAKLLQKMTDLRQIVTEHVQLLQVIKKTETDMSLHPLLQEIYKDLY
UniProt P17844: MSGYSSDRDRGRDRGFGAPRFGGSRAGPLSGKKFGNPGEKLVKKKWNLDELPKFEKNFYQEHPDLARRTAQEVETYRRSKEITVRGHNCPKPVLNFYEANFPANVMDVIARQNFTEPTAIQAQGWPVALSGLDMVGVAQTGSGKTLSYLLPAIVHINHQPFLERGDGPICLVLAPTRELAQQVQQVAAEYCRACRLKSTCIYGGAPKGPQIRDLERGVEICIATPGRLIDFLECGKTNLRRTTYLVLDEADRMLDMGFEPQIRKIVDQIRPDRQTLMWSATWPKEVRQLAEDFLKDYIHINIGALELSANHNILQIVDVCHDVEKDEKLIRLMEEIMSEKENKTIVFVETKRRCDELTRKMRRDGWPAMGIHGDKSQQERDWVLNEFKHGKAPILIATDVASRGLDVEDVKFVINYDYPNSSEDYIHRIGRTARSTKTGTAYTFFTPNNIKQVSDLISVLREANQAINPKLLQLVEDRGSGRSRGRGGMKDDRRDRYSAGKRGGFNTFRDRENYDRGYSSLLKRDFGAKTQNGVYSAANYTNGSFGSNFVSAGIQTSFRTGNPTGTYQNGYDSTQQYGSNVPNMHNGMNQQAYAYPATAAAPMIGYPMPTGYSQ

Tests used:
[1] = molecular target: GST-PPARγ-AF-1 fusion protein (human) (UniProt P37231); test: GST pull-down; 35S-labeled in vitro translated p68 on gel-bound GST-PPARγ-AF-1, SDS-PAGE, imaging analyzer
[2] = molecular target: GST-PPARγ-AF-1 fusion protein (human) (UniProt P37231); test: GST pull-down (restated result of Example 1)

binding [1]: binds
binding [2]: binds
Substance: full-length p68 RNA helicase protein, radio-labeled with radioactive methionine (in vitro translated from pSG5-p68) (from UniProt P17844 1-614) (enzyme)
